For 112 substances, growth estimate results are on record in the supplement of paper PMC5949888.

Most values lie at the floor of the assay. Slopes are relative: functional sequences can read slightly below zero.

The test system of the series is Saccharomyces cerevisiae PS128 hsf1 delta, HSF1(1-493) fusion. In words: growth estimate (transactivation domain function in HSF1 fusion, heat-shock survival) (a.u. (slope of normalised read count over time)); higher = stronger growth at 37°C, i.e. more transactivation activity. The following applies: library: random library.
Consider TSNGAMRLFESPLTCLVARL, for which the growth estimate was less than -0.25.

With GDTKKIDSRLWPATVLIRTE, the growth estimate is less than -0.25.

Take DGDSAKWRRPKSEAFHTPRG: the growth estimate was less than -0.25.

For the substance KCLVLGYQHLTVKIIPKLTR, the growth estimate was less than -0.25.

As for TKRKRTRRVSRHLVRSVTTW, the growth estimate is less than -0.25.

Take TSFHILREPATLRSPALFAS: the growth estimate was less than -0.25.

As to IVIGSIVVAFTSPCRYRSCH, the growth estimate was less than -0.25.

As to INPNARSSQWK, the growth estimate is less than -0.25.

With VSKITSRISLNINPK, the growth estimate was less than -0.25.

For the substance GKKPRAYGP, the growth estimate is less than -0.25.

SIRSTRNGAYRPRPDLDMNR: the growth estimate is less than -0.25.

For the substance PSAAHAATRKLPL, the growth estimate is less than -0.25.

Regarding HNPSLYAVHWGTNGRWTL, the growth estimate is less than -0.25.

Consider RLAIPSDFRIRGWLRVVEG, for which the growth estimate was less than -0.25.

With ACIYAPDVFRNW, the growth estimate is -0.224.

Take LLPGAYPISFRSDR: the growth estimate was less than -0.25.

Turning to TRCSGLARSISGCSDVFEKT, the growth estimate is less than -0.25.

GRAKYGDQGICVGEG: the growth estimate was less than -0.25.

Regarding PPRLTDVAP, the growth estimate is less than -0.25.

RAHEDTSVPQARPRHVSRIV: the growth estimate was -0.25.

On to PGFTRFYGPRGCAGKGLK, for which the growth estimate is less than -0.25.

With ADANPTGSRLVGFGMVHNGV, the growth estimate was less than -0.25.

For the substance EKG, the growth estimate was less than -0.25.

For VSETYDNGTWYSGNTPTGCL, the growth estimate is -0.224.

As to GYFRALAKYWYCPDRFADST, the growth estimate is less than -0.25.

For the substance PAVADGRVPRTSLDSTWFPQ, the growth estimate was less than -0.25.

As to NTESPQGRASLARAESWQFN, the growth estimate is less than -0.25.

For the substance ILERLV, the growth estimate was less than -0.25.

For LQTNAWSLELELPETLTLLG, the growth estimate was less than -0.25.

For LNI, the growth estimate is less than -0.25.

Turning to GHSKQLSKAVVRSLTGSAPP, the growth estimate is less than -0.25.

Consider SSH, for which the growth estimate was less than -0.25.

Regarding DNLRSQRG, the growth estimate is less than -0.25.

Turning to SDSSWGLYTSIPLPSSRARC, the growth estimate is less than -0.25.

With VVKKVVVPCRLSRFTARSV, the growth estimate is less than -0.25.

With RPKERGGCLVLPTMKRHGEK, the growth estimate is less than -0.25.

With VQDMVLGRFWMKQTSNPGRW, the growth estimate was less than -0.25.

In the case of WCTLRLRFEVSVRTLACQGC, the growth estimate is less than -0.25.

Consider AAPNRDFPELSLLNFLGHGR, for which the growth estimate was -0.176.

As to GYRPWHIMSVNSKAATAPRG, the growth estimate was less than -0.25.

For PGPLV, the growth estimate was less than -0.25.

Turning to CKLLELPGTYM, the growth estimate is less than -0.25.

As for GYLRPGYGEHVA, the growth estimate is less than -0.25.

ELQCTSRIATMFISPSNAAA: the growth estimate is 0.215.

For the substance GFNTMQGRSLIESDRGNMAD, the growth estimate is less than -0.25.

Take SVEARGRTCPVGTR: the growth estimate was less than -0.25.

Consider GFGRLIAHCSRWLLR, for which the growth estimate is less than -0.25.

Regarding FLYEYGSVLL, the growth estimate is 8.31.

As for SGRPAAFGWSLLALLLDWSQ, the growth estimate is less than -0.25.

As for FTLRYP, the growth estimate is less than -0.25.

On to GKGHRGLYFASDKRRPRSSP, for which the growth estimate was less than -0.25.

As to RGPCKPVRWLLSPVRAPGQR, the growth estimate was less than -0.25.

Take RGVPCLLARADTDDAW: the growth estimate was less than -0.25.

As to LGGV, the growth estimate was less than -0.25.

For the substance KDWA, the growth estimate is less than -0.25.

For the substance RSSVRCSLILTRKRYASKQG, the growth estimate was less than -0.25.

For the substance LLFVFWALKTSHVALRLGRL, the growth estimate was less than -0.25.

As to RVLTSLGRDNFTCLVWGIWG, the growth estimate is less than -0.25.

With RRVTLRTKSHENGILLEYS, the growth estimate was less than -0.25.

Take VKTVNRDLRPP: the growth estimate is less than -0.25.

Turning to NCKFASLARCGSRVRCVAPT, the growth estimate is less than -0.25.

With KLPAKGDTDQN, the growth estimate is less than -0.25.

For the substance ERRR, the growth estimate was less than -0.25.

In the case of RVQQPGLGRGLCGPNIVVFY, the growth estimate was less than -0.25.

On to HARSLLVSSQLGIAVPALGP, for which the growth estimate is less than -0.25.

For HVYESSICQTSTAHF, the growth estimate was less than -0.25.

Take EQGRLRKPGARDWSIRSDYS: the growth estimate was less than -0.25.

Regarding KGVQRSLSRGLRAPFT, the growth estimate was less than -0.25.

As to GGLGDHTMLIRYIRWICIV, the growth estimate is less than -0.25.

Take AGPPRGGAEWLVLCENNQQG: the growth estimate was less than -0.25.

VTIPTWGF: the growth estimate is less than -0.25.

In the case of LGRYRF, the growth estimate was less than -0.25.

Take LSLNTYGAINGA: the growth estimate is less than -0.25.

In the case of TGKF, the growth estimate is less than -0.25.

In the case of QRSPSTSKAKPGKGEGSVDS, the growth estimate is -0.246.

Take TIGVEWGGHQETLMPVQFWL: the growth estimate is -0.0171.

For VNLVDRFKYTDLKSALRIQY, the growth estimate was -0.208.

Consider RTVGFPSLAGAGLCHVSPQE, for which the growth estimate was less than -0.25.

Consider GVPCFDRTCSGT, for which the growth estimate was less than -0.25.

With GITDWCELVSGRGRRLRNRA, the growth estimate is less than -0.25.

As to GFRQGQRTSH, the growth estimate is less than -0.25.

As to YAVGMPRFAHVTVSHSGKKT, the growth estimate was less than -0.25.

Regarding SSSLGWELKKKG, the growth estimate was less than -0.25.

Take QGWCRARICGPHPLGSRDSV: the growth estimate is less than -0.25.

On to TASWR, for which the growth estimate was less than -0.25.

LASSDDFLYTKIRCVCGKLW: the growth estimate was less than -0.25.

KDVRQHRGCGSANGPWKPQG: the growth estimate is less than -0.25.

Take IQSRYRRVRH: the growth estimate was less than -0.25.

Take GGDFGKDCDGVNLAIENRVY: the growth estimate is -0.246.

As to STLGRGKL, the growth estimate was less than -0.25.

Consider EERHNVPEFG, for which the growth estimate was less than -0.25.

On to PRIVA, for which the growth estimate was less than -0.25.

For RDIFAKLPMRYVNSTPGHHR, the growth estimate is less than -0.25.

In the case of VRESSGSRTYAYVTSLAINV, the growth estimate is less than -0.25.

In the case of TGYPGAAALCDYWALPRGNP, the growth estimate was less than -0.25.

For the substance IFAGSCLLRVDTSRH, the growth estimate is less than -0.25.

In the case of VSVRMSYRLILGL, the growth estimate is less than -0.25.

Turning to LRFRYTSKSNQLLR, the growth estimate is less than -0.25.

For FIRSRDVTDWRARVHSSPCL, the growth estimate was less than -0.25.

With LSGDS, the growth estimate was less than -0.25.

On to RKADDPVGPSGG, for which the growth estimate was less than -0.25.

As for YRAPEDAASRAKATFRTYRL, the growth estimate is less than -0.25.

In the case of INSVCNDVFIWTAVMALHGR, the growth estimate is less than -0.25.

Consider PRYLSRSGKRRRRSNCYCPS, for which the growth estimate was less than -0.25.

For the substance AIAKEDWHINLLGQKIFAWF, the growth estimate is less than -0.25.

As for GAI, the growth estimate is less than -0.25.

Turning to KKIASGVAGSLALEG, the growth estimate was less than -0.25.

As to RGPLSLSTCGQLLGASVGIC, the growth estimate is less than -0.25.

Turning to ASYGNDSVKGVTGWHGFLGR, the growth estimate is less than -0.25.

With GVGLVHVEDIIPMCKGSSGR, the growth estimate is less than -0.25.

VRDRSVAE: the growth estimate is less than -0.25.

TAQSELWKWIHRMFENATAW: the growth estimate was less than -0.25.
